Here are results for 2 molecules from patent US6403561B1, “Tripeptidylpeptidase inhibitors” (Institut National de la Sante et de la Recherche Medicale …, priority 1998, dated 2002).

Sequences of proteins named here, by UniProt entry; tags and fusion partners are left off.
UniProt Q64560, whole entry: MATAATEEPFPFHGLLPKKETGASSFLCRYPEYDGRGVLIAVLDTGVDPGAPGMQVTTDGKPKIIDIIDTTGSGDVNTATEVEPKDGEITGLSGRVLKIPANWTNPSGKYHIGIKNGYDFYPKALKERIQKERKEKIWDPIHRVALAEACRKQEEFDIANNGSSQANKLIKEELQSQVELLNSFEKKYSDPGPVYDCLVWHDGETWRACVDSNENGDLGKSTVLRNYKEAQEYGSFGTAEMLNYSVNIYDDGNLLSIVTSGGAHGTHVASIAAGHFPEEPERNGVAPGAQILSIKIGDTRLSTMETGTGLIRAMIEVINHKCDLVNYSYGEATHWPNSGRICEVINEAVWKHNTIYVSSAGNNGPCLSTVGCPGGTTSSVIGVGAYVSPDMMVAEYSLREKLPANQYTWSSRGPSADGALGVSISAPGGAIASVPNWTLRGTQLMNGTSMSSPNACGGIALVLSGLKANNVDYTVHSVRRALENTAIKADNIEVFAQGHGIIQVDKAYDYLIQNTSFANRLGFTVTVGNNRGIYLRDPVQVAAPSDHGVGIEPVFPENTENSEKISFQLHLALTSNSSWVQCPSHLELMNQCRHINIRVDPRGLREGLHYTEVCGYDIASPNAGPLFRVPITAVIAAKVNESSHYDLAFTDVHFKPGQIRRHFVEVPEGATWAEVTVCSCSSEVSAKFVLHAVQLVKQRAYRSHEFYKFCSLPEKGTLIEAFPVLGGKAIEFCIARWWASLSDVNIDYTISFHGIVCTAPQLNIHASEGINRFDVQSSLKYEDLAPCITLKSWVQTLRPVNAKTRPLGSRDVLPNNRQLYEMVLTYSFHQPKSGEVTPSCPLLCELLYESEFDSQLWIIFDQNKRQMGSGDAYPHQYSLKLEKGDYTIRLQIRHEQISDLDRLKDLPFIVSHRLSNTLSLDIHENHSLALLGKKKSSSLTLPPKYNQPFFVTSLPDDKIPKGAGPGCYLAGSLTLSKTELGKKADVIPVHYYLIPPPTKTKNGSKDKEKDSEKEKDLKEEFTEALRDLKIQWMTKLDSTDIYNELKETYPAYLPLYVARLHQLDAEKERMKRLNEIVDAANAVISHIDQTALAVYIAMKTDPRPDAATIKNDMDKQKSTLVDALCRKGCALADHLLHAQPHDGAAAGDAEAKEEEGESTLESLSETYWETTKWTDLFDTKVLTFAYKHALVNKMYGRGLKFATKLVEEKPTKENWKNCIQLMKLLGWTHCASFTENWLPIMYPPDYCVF

In this experiment the target is membrane-bound tripeptidylpeptidase II (Rattus norvegicus, UniProt Q64560). As to the kind of experiment: Measurement of the activity of membrane-bound tripeptidylpeptidase (release of Amc from A-AP-Amc, fluorimetry). The note with it: apparent dissociation constant calculated from the 50% inhibitory concentration and the KM of the substrate (23 μM); rat brain membranes, 50 μM A-AP-Amc.

SMILES strings stand for the structures. The structures given here were assigned with low confidence; some may be wrong.

Regarding `CCCCNC(=O)[C@H]1Cc2cc(F)ccc2N1C(=O)[C@@H](N)CC`, the Ki was 233 nM.

Regarding `CCCCNC(=O)[C@@H]1Cc2cc(F)ccc2N1C(=O)[C@@H](N)CC`, the Ki is 3 nM.
